Here are results for one substance from publication PMC9399058 (European Journal of Nuclear Medicine and Molecular Imaging, 2022).

The data set can be described thus: general procedure: Fmoc solid-phase peptide synthesis; Trityl resin. Particulars: whole synthesis, scale 50 µmol.

Hex-Cys-Pro-Pro-Thr-Gln-Phe-Cys-OH gave an isolated mass of 17.8 mg and an isolated yield of 32.8%.
